In paper PMC9138245 one finds binding data, which are given here for one molecule.

By UniProt entry, the sequences of proteins in these tests, tags left out.
UniProt P15311: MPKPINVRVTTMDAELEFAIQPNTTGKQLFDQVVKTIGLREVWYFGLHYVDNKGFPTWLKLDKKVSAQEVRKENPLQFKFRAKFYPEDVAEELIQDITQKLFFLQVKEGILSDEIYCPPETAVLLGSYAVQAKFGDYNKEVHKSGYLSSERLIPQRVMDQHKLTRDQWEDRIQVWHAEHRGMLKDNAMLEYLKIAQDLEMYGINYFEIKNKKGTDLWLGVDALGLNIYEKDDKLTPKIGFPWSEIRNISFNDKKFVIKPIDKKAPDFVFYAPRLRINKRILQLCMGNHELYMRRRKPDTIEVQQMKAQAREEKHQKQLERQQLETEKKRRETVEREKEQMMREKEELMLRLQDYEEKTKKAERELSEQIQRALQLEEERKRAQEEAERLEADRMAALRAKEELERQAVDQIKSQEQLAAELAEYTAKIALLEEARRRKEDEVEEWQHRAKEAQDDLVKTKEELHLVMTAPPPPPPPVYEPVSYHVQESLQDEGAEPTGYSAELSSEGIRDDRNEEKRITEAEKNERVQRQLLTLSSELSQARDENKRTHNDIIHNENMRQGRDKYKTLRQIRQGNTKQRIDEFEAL

No constants are given. Whether binding was seen depends on the method and setting. Binding seen in cells or lysates may run through a third protein. Some entries that bind do so weakly or less than the wild type.

For the test, the target named is phosphorylated ezrin (Thr567) (human (endogenous in dHL60)) (UniProt P15311). As to the kind of experiment: co-IP; lysate (RIPA) of BifA-treated dHL60 cells; immunoprecipitation with anti-p-ezrin (T567) monoclonal antibody; blot for Dbl and p-ezrin.

B1: Dbl (guanine nucleotide exchange factor) (protein, UniProt P10911 1-925)
chain: MAEANPRRGKMRFRRNAASFPGNLHLVLVLRPTSFLQRTFTDIGFWFSQEDFMLKLPVVMLSSVSDLLTYIDDKQLTPELGGTLQYCHSEWIIFRNAIENFALTVKEMAQMLQSFGTELAETELPDDIPSIEEILAIRAERYHLLKNDITAVTKEGKILLTNLEVPDTEGAVSSRLECHRQISGDWQTINKLLTQVHDMETAFDGFWEKHQLKMEQYLQLWKFEQDFQQLVTEVEFLLNQQAELADVTGTIAQVKQKIKKLENLDENSQELLSKAQFVILHGHKLAANHHYALDLICQRCNELRYLSDILVNEIKAKRIQLSRTFKMHKLLQQARQCCDEGECLLANQEIDKFQSKEDAQKALQDIENFLEMALPFINYEPETLQYEFDVILSPELKVQMKTIQLKLENIRSIFENQQAGFRNLADKHVRPIQFVVPTPENLVTSGTPFFSSKQGKKTWRQNQSNLKIEVVPDCQEKRSSGPSSSLDNGNSLDVLKNHVLNELIQTERVYVRELYTVLLGYRAEMDNPEMFDLMPPLLRNKKDILFGNMAEIYEFHNDIFLSSLENCAHAPERVGPCFLERKDDFQMYAKYCQNKPRSETIWRKYSECAFFQECQRKLKHRLRLDSYLLKPVQRITKYQLLLKELLKYSKDCEGSALLKKALDAMLDLLKSVNDSMHQIAINGYIGNLNELGKMIMQGGFSVWIGHKKGATKMKDLARFKPMQRHLFLYEKAIVFCKRRVESGEGSDRYPSYSFKHCWKMDEVGITEYVKGDNRKFEIWYGEKEEVYIVQASNVDVKMTWLKEIRNILLKQQELLTVKKRKQQDQLTERDKFQISLQQNDEKQQGAFISTEETELEHTSTVVEVCEAIASVQAEANTVWTEASQSAEISEEPAEWSSNYFYPTYDENEEENRPLMRPVSEMALLY
For the molecule B1, the binding result was “binds”.
